# Results taken from the supplement of paper PMC4604168 (melanoma cell lines).
# The other results are listed elsewhere or left out. Single values are uncertain, as repeats are few or missing.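 The apoptosis fraction was the count of cleaved-PARP antibody-stained nuclei relative to all DNA-stained nuclei, imaged in 1,536-well plates. Screening doses were set so most cells survived, and baseline and induced cleaved-PARP levels vary greatly across cell lines.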
# Experiments:
# Test in all cases: cleaved PARP positive nuclei fraction relative to DMSO control; melanoma cells; higher = more apoptosis
# Conditions in all cases: library dose: low library concentration; 72 h
# [1] = system: MZ2-MEL
# [2] = system: MeWo
# [3] = system: RPMI7951
# [4] = system: RVH-421
# [5] = system: SkMel28
# [6] = system: SkMel30
# [7] = system: SkMel5
# [8] = system: UACC257
# [9] = system: UACC62
Compound,cleaved PARP positive nuclei fraction [1],cleaved PARP positive nuclei fraction [2],cleaved PARP positive nuclei fraction [3],cleaved PARP positive nuclei fraction [4],cleaved PARP positive nuclei fraction [5],cleaved PARP positive nuclei fraction [6],cleaved PARP positive nuclei fraction [7],cleaved PARP positive nuclei fraction [8],cleaved PARP positive nuclei fraction [9]
"COc1cc(Nc2ncc(F)c(Nc3ccc4c(n3)NC(=O)C(C)(C)O4)n2)cc(OC)c1OC [Tamatinib] + Cc1cc(SCc2sc(-c3ccc(C(F)(F)F)c(F)c3)nc2C)ccc1OCC(=O)O [GW0742] (first compound 0.4 µM, partner dose 2 µM)",91.3%,41.4%,120%,56.4%,129%,31.6%,261%,274%,385%
"C[C@]12O[C@H](C[C@]1(O)CO)n1c3ccccc3c3c4c(c5c6ccccc6n2c5c31)CNC4=O [Lestaurtinib] + O=C(CCCCCCC(=O)Nc1ccccc1)NO [vorinostat] (first compound 0.004 µM, partner dose 0.08 µM)",153%,85.4%,99.2%,133%,73.1%,87.8%,129%,312%,78.7%
"COCC[n+]1c2c(n(Cc3cnccn3)c1C)C(=O)c1ccccc1C2=O + Cc1cc(SCc2sc(-c3ccc(C(F)(F)F)c(F)c3)nc2C)ccc1OCC(=O)O [GW0742] (first compound 0.0004 µM, partner dose 2 µM)",354%,69.2%,86.7%,76.1%,126%,26.6%,77.6%,38.8%,54.6%
"O=C(Nc1ccccc1)c1cc([N+](=O)[O-])ccc1Cl + Cc1cc(SCc2sc(-c3ccc(C(F)(F)F)c(F)c3)nc2C)ccc1OCC(=O)O [GW0742] (first compound 2 µM, partner dose 2 µM)",110%,29.1%,78%,118%,141%,16.2%,186%,56%,90.7%
"COc1ccc2c(c1)CCC1C2CCC2(C)C(NCCCCCCN3C(=O)C=CC3=O)CCC12 (configuration not stated) + C/C(O)=C(\C#N)C(=O)Nc1cc(Br)ccc1Br [LFM-A13] (first compound 0.4 µM, partner dose 2 µM)",203%,59%,48.8%,118%,113%,73.6%,61.9%,210%,171%
"C/C(O)=C(\C#N)C(=O)Nc1cc(Br)ccc1Br + c1cc(-c2cnn3cc(-c4ccc(OCCN5CCCCC5)cc4)cnc23)ccn1 [Dorsomorphin] (first compound 2 µM, partner dose 0.4 µM)",26.5%,55.8%,94.1%,27.5%,189%,40%,127%,155%,99.3%
"O=S(=O)(c1ccccc1)N(CC(F)(F)F)c1ccc(C(O)(C(F)(F)F)C(F)(F)F)cc1 + Cc1cc(SCc2sc(-c3ccc(C(F)(F)F)c(F)c3)nc2C)ccc1OCC(=O)O [GW0742] (first compound 1.4 µM, partner dose 2 µM)",15.1%,26%,82.1%,78.3%,170%,160%,137%,68.9%,234%
"C[As](C)SC[C@H](NC(=O)CC[C@H](N)C(=O)O)C(=O)NCC(=O)O [Darinaparsin] + O=S(=O)(c1ccccc1)N(CC(F)(F)F)c1ccc(C(O)(C(F)(F)F)C(F)(F)F)cc1 [T0901317] (first compound 0.4 µM, partner dose 1.4 µM)",44.2%,222%,69.2%,101%,166%,54.3%,131%,62.3%,248%
"NCC(=O)Nc1ccc(-n2nc(C(F)(F)F)cc2-c2ccc3c(ccc4ccccc43)c2)cc1 + C/C(O)=C(\C#N)C(=O)Nc1cc(Br)ccc1Br [LFM-A13] (first compound 1 µM, partner dose 2 µM)",168%,266%,75.8%,72.2%,191%,98.9%,72.3%,135%,277%
"C[C@]12O[C@H](C[C@]1(O)CO)n1c3ccccc3c3c4c(c5c6ccccc6n2c5c31)CNC4=O [Lestaurtinib] + O=c1cc(-c2cccc3c2Sc2ccccc2S3)oc(N2CCOCC2)c1 [KU55933] (first compound 0.004 µM, partner dose 1 µM)",119%,88.7%,75.2%,174%,269%,84.7%,73.3%,122%,177%
"Cc1cc(SCc2sc(-c3ccc(C(F)(F)F)c(F)c3)nc2C)ccc1OCC(=O)O + Oc1cc(-c2nc(-c3ccccc3)[nH]c2-c2ccncc2)ccc1Cl [L779450] (first compound 2 µM, partner dose 0.2 µM)",239%,51.6%,71.8%,33.9%,115%,419%,30%,240%,328%
"C[C@]1(c2nc3c(C(N)=O)cccc3[nH]2)CCCN1 [Veliparib] + C/C(O)=C(\C#N)C(=O)Nc1cc(Br)ccc1Br [LFM-A13] (first compound 1.4 µM, partner dose 2 µM)",55.8%,23.9%,49.9%,105%,166%,52.6%,31.1%,87.2%,158%
"C[As](C)SC[C@H](NC(=O)CC[C@H](N)C(=O)O)C(=O)NCC(=O)O [Darinaparsin] + CC(C)CCN1c2nc(Nc3cc(F)c(O)c(F)c3)ncc2N(C)C(=O)C1C [BID1870] (first compound 0.4 µM, partner dose 0.2 µM)",102%,59.8%,164%,98.1%,143%,31.5%,89.5%,164%,44.8%
"Oc1nc(-c2ccc(C(F)(F)F)cc2)nc2c1CSCC2 + O=C(Oc1ccc([N+](=O)[O-])cc1)N1CCC(C(O)(c2ccc3c(c2)OCO3)c2ccc3c(c2)OCO3)CC1 [JZL184] (first compound 2 µM, partner dose 1 µM)",114%,144%,87.6%,43.8%,65.4%,131%,32%,151%,48.6%
"OCCn1cc(-c2cnc3nnn(Cc4ccc5ncccc5c4)c3n2)cn1 + O=C(Oc1ccc([N+](=O)[O-])cc1)N1CCC(C(O)(c2ccc3c(c2)OCO3)c2ccc3c(c2)OCO3)CC1 [JZL184] (first compound 1 µM, partner dose 1 µM)",105%,30.1%,42.1%,53.3%,73.8%,27.8%,72.5%,120%,105%
"COc1ccc(-c2ccc3c(N4CCOCC4)nc(N4C[C@@H](C)O[C@@H](C)C4)nc3n2)cc1CO + O=C(Oc1ccc([N+](=O)[O-])cc1)N1CCC(C(O)(c2ccc3c(c2)OCO3)c2ccc3c(c2)OCO3)CC1 [JZL184] (first compound 0.02 µM, partner dose 1 µM)",119%,33.8%,107%,101%,135%,64.4%,36.3%,127%,82.1%
"C[C@]12O[C@H](C[C@]1(O)CO)n1c3ccccc3c3c4c(c5c6ccccc6n2c5c31)CNC4=O [Lestaurtinib] + Cn1cncc1[C@@](N)(c1ccc(Cl)cc1)c1ccc2c(c1)c(-c1cccc(Cl)c1)cc(=O)n2C [tipifarnib] (first compound 0.004 µM, partner dose 0.01 µM)",91.9%,115%,166%,244%,69.4%,75.2%,127%,209%,382%
"COc1cc(Nc2ncc(F)c(Nc3ccc4c(n3)NC(=O)C(C)(C)O4)n2)cc(OC)c1OC [Tamatinib] + C/C(O)=C(\C#N)C(=O)Nc1cc(Br)ccc1Br [LFM-A13] (first compound 0.4 µM, partner dose 2 µM)",122%,252%,92.9%,43.6%,170%,59.9%,270%,215%,51.5%
"C[C@]12O[C@H](C[C@]1(O)CO)n1c3ccccc3c3c4c(c5c6ccccc6n2c5c31)CNC4=O [Lestaurtinib] + COc1cc2ncnc(Nc3ccc(Oc4ccccc4)cc3)c2cc1OC [SrcI1] (first compound 0.004 µM, partner dose 2 µM)",111%,119%,79.6%,47.4%,74.3%,97.3%,143%,141%,178%
"COc1ccc(COc2ccc(Cc3cnc(N)nc3N)cc2OC)cc1 + Cc1cc(SCc2sc(-c3ccc(C(F)(F)F)c(F)c3)nc2C)ccc1OCC(=O)O [GW0742] (first compound 1 µM, partner dose 2 µM)",74.2%,53.7%,96.5%,33.9%,120%,51%,62%,54.1%,78%
"COC(=O)c1sccc1S(=O)(=O)Nc1ccc(Nc2ccccc2)cc1OC + Cc1cc(SCc2sc(-c3ccc(C(F)(F)F)c(F)c3)nc2C)ccc1OCC(=O)O [GW0742] (first compound 1 µM, partner dose 2 µM)",159%,55.2%,89.6%,38%,69.1%,49.9%,129%,46%,80.2%
"C[C@]12O[C@H](C[C@]1(O)CO)n1c3ccccc3c3c4c(c5c6ccccc6n2c5c31)CNC4=O [Lestaurtinib] + COc1cc(N2CCC(N3CCN(C)CC3)CC2)ccc1Nc1ncc(Cl)c(Nc2ccccc2S(=O)(=O)C(C)C)n1 [NVP-TAE684] (first compound 0.004 µM, partner dose 0.08 µM)",134%,115%,254%,68.9%,193%,119%,43.2%,237%,120%
"C[As](C)SC[C@H](NC(=O)CC[C@H](N)C(=O)O)C(=O)NCC(=O)O [Darinaparsin] + O=C(Nc1ccccc1)c1cc([N+](=O)[O-])ccc1Cl [GW9662] (first compound 0.4 µM, partner dose 2 µM)",58.2%,29.6%,102%,228%,121%,16.8%,65.4%,103%,36.3%

# Single records, as listed above. Values in the order: cleaved PARP positive nuclei fraction [1]	cleaved PARP positive nuclei fraction [2]	cleaved PARP positive nuclei fraction [3]	cleaved PARP positive nuclei fraction [4]	cleaved PARP positive nuclei fraction [5]	cleaved PARP positive nuclei fraction [6]	cleaved PARP positive nuclei fraction [7]	cleaved PARP positive nuclei fraction [8]	cleaved PARP positive nuclei fraction [9]
# COc1ccc(-c2ccc3c(N4CCOCC4)nc(N4C[C@@H](C)O[C@@H](C)C4)nc3n2)cc1CO + O=C(Oc1ccc([N+](=O)[O-])cc1)N1CCC(C(O)(c2ccc3c(c2)OCO3)c2ccc3c(c2)OCO3)CC1 [JZL184] (first compound 0.02 µM, partner dose 1 µM) is entered as 119%	33.8%	107%	101%	135%	64.4%	36.3%	127%	82.1%
# C/C(O)=C(\C#N)C(=O)Nc1cc(Br)ccc1Br + c1cc(-c2cnn3cc(-c4ccc(OCCN5CCCCC5)cc4)cnc23)ccn1 [Dorsomorphin] (first compound 2 µM, partner dose 0.4 µM) is entered as 26.5%	55.8%	94.1%	27.5%	189%	40%	127%	155%	99.3%
